Assay results from paper PMC2923609.
No constants are given. Whether binding was seen depends on the method and setting. In cells and extracts the contact can be indirect. Some binding calls cover weakened binding; strength is not graded here. For some assays here: Sequences can lack the tags named with a protein.

Sequences of proteins named here, by UniProt entry; tags and fusion partners are left off. Residues count along the entry.
UniProt Q01705, residues 19-2531: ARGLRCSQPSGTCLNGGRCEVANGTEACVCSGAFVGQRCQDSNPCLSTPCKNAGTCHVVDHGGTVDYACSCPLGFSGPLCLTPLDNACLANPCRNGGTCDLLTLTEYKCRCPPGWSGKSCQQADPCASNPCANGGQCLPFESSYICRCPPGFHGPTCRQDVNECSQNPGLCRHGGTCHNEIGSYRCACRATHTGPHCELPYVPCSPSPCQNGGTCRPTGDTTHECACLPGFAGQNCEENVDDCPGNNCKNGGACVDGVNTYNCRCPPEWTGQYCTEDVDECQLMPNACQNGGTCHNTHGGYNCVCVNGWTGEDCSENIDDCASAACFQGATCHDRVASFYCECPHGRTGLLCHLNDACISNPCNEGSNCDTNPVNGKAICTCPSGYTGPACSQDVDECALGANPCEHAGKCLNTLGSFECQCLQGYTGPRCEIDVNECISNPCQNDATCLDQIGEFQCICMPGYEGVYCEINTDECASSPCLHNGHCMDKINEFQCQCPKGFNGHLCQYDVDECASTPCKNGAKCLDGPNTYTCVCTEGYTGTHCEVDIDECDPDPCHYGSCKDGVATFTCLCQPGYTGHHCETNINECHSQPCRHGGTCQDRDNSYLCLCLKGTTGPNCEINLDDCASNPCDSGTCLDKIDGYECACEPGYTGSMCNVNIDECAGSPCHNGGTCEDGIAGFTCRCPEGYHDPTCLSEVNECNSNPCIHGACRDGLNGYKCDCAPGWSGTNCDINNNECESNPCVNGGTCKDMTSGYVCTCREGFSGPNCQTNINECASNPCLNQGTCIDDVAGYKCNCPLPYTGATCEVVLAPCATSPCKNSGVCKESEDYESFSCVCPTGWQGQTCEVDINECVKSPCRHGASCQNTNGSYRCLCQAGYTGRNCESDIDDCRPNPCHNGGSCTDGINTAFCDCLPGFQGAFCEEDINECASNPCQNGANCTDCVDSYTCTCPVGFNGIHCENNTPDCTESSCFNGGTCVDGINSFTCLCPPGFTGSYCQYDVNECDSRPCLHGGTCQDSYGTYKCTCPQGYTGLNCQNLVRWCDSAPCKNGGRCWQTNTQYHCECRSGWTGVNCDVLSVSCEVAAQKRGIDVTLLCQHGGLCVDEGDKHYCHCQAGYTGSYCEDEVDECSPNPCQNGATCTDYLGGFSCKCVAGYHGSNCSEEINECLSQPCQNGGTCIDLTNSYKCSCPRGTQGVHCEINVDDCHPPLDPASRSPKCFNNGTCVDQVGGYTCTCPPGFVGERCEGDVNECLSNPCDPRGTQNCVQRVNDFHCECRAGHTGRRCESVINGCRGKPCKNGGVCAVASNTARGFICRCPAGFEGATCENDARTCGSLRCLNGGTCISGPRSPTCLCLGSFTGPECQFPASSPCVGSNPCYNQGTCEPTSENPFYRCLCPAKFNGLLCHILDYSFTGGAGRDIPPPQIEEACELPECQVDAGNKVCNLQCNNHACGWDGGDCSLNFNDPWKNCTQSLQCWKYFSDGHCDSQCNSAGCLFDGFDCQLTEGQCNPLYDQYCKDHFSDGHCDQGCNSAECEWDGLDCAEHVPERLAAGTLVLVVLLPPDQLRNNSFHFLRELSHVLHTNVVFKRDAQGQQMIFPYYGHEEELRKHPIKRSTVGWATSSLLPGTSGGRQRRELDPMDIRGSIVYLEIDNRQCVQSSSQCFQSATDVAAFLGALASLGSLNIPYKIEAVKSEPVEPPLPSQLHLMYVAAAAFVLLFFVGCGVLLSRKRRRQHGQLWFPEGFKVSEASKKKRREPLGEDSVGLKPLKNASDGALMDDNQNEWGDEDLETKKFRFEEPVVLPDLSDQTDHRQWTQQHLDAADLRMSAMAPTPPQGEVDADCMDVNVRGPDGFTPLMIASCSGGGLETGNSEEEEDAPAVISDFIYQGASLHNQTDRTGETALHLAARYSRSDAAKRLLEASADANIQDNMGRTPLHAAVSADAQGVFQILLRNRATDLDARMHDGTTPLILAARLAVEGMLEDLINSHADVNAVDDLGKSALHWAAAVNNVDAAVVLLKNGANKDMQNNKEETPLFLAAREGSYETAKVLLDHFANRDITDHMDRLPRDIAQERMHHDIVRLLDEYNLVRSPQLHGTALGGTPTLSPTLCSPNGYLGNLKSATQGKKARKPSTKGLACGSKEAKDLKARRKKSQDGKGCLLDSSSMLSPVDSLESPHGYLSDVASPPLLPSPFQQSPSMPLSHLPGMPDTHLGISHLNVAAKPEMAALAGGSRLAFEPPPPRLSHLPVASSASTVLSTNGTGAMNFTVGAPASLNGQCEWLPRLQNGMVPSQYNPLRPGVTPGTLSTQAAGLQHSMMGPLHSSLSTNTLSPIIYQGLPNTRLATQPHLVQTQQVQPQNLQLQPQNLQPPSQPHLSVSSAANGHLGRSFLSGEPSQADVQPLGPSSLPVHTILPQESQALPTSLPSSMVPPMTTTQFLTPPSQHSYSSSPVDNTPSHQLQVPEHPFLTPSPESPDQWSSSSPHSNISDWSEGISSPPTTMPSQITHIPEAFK

Experiments:
periostin-Myc = target: T1, periostin-Myc (UniProt Q62009); assay: co-IP; whole-cell lysates of HEK293T cells co-expressing Notch1-FLAG and periostin-Myc; precipitated with anti-Myc antibody, blotted with anti-Notch1 (extracellular region) antibody; lysis buffer 150 mM NaCl, 100 mM Tris-Cl pH 7.4, 1% Triton X-100, 0.5% NP-40
T1 sequence: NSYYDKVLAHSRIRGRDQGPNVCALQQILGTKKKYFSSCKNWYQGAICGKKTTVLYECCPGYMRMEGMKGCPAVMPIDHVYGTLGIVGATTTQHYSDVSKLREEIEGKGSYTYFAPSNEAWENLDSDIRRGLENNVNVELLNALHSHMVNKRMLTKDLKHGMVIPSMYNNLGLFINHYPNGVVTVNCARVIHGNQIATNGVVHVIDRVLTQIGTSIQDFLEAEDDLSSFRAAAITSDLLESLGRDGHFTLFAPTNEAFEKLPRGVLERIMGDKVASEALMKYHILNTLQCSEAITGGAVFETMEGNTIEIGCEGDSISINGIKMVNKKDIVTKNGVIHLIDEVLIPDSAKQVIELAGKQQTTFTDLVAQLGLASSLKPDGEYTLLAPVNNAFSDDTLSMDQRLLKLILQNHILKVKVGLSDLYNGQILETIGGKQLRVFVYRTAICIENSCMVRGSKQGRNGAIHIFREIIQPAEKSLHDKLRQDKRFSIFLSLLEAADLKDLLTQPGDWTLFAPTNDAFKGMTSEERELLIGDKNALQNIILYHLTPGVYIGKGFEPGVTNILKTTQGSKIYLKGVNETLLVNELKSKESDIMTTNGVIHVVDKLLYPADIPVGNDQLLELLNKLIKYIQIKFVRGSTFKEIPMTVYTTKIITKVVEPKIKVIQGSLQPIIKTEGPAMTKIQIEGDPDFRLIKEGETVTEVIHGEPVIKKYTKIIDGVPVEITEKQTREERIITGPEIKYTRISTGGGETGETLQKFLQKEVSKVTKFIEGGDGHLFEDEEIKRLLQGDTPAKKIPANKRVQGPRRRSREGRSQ

[1] = target: Notch1-FLAG precursor (300 kDa) (UniProt Q01705); assay: co-IP; whole-cell lysates of HEK293T cells co-expressing Notch1-FLAG and periostin; precipitated with anti-FLAG antibody, blotted with anti-periostin antibody; lysis buffer 150 mM NaCl, 100 mM Tris-Cl pH 7.4, 1% Triton X-100, 0.5% NP-40

Molecule: Notch1-FLAG precursor (300 kDa) (from UniProt Q01705 19-2531) (receptor)
- binding (periostin-Myc): binds

B1: periostin (protein, UniProt Q62009 24-838)
chain: NSYYDKVLAHSRIRGRDQGPNVCALQQILGTKKKYFSSCKNWYQGAICGKKTTVLYECCPGYMRMEGMKGCPAVMPIDHVYGTLGIVGATTTQHYSDVSKLREEIEGKGSYTYFAPSNEAWENLDSDIRRGLENNVNVELLNALHSHMVNKRMLTKDLKHGMVIPSMYNNLGLFINHYPNGVVTVNCARVIHGNQIATNGVVHVIDRVLTQIGTSIQDFLEAEDDLSSFRAAAITSDLLESLGRDGHFTLFAPTNEAFEKLPRGVLERIMGDKVASEALMKYHILNTLQCSEAITGGAVFETMEGNTIEIGCEGDSISINGIKMVNKKDIVTKNGVIHLIDEVLIPDSAKQVIELAGKQQTTFTDLVAQLGLASSLKPDGEYTLLAPVNNAFSDDTLSMDQRLLKLILQNHILKVKVGLSDLYNGQILETIGGKQLRVFVYRTAICIENSCMVRGSKQGRNGAIHIFREIIQPAEKSLHDKLRQDKRFSIFLSLLEAADLKDLLTQPGDWTLFAPTNDAFKGMTSEERELLIGDKNALQNIILYHLTPGVYIGKGFEPGVTNILKTTQGSKIYLKGVNETLLVNELKSKESDIMTTNGVIHVVDKLLYPADIPVGNDQLLELLNKLIKYIQIKFVRGSTFKEIPMTVYTTKIITKVVEPKIKVIQGSLQPIIKTEGPAMTKIQIEGDPDFRLIKEGETVTEVIHGEPVIKKYTKIIDGVPVEITEKQTREERIITGPEIKYTRISTGGGETGETLQKFLQKEVSKVTKFIEGGDGHLFEDEEIKRLLQGDTPAKKIPANKRVQGPRRRSREGRSQ
- binding [1]: binds
